Experimental data: paper PMC6331645
Results are given in words; binding and its absence hold for the method and conditions named. Binding seen in cells or lysates may run through a third protein. Some results given as binding are weak or reduced against the parent protein; the word gives no strength.

Chains of the proteins cited; added tags and fusions are not shown. Lines headed by an entry give the natural chain unless they say otherwise; changes in a name come on top.
UniProt P60953: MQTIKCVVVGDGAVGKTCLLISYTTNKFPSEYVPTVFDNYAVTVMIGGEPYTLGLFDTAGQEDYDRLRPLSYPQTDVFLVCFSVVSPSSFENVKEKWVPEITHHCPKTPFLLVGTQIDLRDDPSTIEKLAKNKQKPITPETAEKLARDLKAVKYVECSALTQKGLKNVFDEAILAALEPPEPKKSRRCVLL
UniProt Q13153: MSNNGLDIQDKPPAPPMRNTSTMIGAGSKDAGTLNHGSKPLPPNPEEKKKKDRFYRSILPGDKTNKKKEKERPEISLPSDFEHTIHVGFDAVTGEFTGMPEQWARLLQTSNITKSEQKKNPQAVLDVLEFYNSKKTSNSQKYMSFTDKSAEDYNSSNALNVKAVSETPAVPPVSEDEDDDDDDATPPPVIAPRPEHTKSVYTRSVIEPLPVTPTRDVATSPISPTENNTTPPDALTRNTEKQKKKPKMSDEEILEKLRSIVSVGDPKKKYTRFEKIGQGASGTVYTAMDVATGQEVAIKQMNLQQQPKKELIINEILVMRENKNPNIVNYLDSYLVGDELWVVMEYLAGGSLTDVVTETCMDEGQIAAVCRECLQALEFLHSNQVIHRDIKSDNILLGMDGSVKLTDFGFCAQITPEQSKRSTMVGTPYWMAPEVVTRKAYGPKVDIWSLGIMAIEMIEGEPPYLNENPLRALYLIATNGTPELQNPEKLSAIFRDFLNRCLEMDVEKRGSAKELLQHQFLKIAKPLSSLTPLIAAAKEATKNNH

Columns and labels:
[1] = molecular target: RA-HRas (wild-type), the Ras half of the R-HRas sensor (UniProt P01112); experiment: split reporter; ddFP cross-reaction test in migrating MDA-MB-231 cells: a full sensor (R-HRas or G-Rac1) co-expressed with the copy A-labelled non-target GTPase (GA-Rac1 or RA-HRas, with IRES-Lyn-iRFP682); RA and GA signals followed over time
[2] = molecular target: GA-Cdc42, the GTPase half of the G-Cdc42 sensor (UniProt P60953); experiment: split reporter; ddFP sensors in neurons: cultured rat hippocampal neurons (OptoTrkB, blue light), mouse organotypic cortical slices (two-photon glutamate uncaging on single spines) and motor cortex of living mice (two-photon imaging)
[3] = molecular target: RA-Cdc42 (wild-type), the GTPase half of the R-Cdc42 sensor (UniProt P60953); experiment: split reporter; ddFP sensors from bicistronic 2A vectors in living cultured cell lines (HeLa, MDA-MB-231), confocal imaging at 37 °C; stimulated with EGF (50 ng ml^-1) and gefitinib (400 nM), rapamycin-induced recruitment of activators to the plasma membrane, or random cell migration

binding [1]: no binding
binding [2]: binds
binding [3]: binds
Substance: B3-CRIB_(Pak1) (B3-labelled CRIB domain of Pak1, amino acids 69-108) (from UniProt Q13153 69-108) (domain or fragment)
